Test results as given in patent US20240376224A1 (University of California, published 2024).
These are yes or no findings as the source states them, for the method shown. Binding can be weak; no strength is given.

Tests used:
[1] = molecular target: plasmin-treated CDCP1 (human); test: BLI; fl-CDCP1 ectodomain treated with plasmin
[2] = molecular target: plasmin-treated CDCP1 (human); test: BLI (Octet), plasmin-treated fl-CDCP1 ectodomain on the sensor, IgG CL03 as analyte; concentration not given

binding [1]: binds
binding [2]: binds
B1: CL03 IgG (antibody, V domains shown)
VH: EVQLVESGGGLVQPGGSLRLSCAASGFNFSSYSIHWVRQAPGKGLEWVASIYPYSGSTYYADSVKGRFTISADTSKNTAYLQMNSLRAEDTAVYYCARQSHSYYSHTWWVSYGMDYWGQGTLVTVSS
VL: DIQMTQSPSSLSASVGDRVTITCRASQSVSSAVAWYQQKPGKAPKLLIYSASSLYSGVPSRFSGSRSGTDFTLTISSLQPEDFATYYCQQSGQRPITFGQGTKVEIKR
notes: also called IgG CL03
